Data taken from patent US11883459B2, “Thiol isomerases inhibitors for the treatment and prevention of food allergies, allergic diseases, and inflammatory diseases” (WESTERN NEW ENGLAND UNIVERSITY, priority 2018, dated 2024).
At least one structure is not confirmed: it was looked up by name or label, or the drawing left a doubt.

System: bone marrow-derived mast cells (BMMCs)
Test: cytokine production from IgE/antigen-activated bone marrow-derived mast cells (ELISA)
Format: cell-based, BALB/c mice
Details: BMMCs cultured with various concentrations for 1 day or 7 days, FIGS. 1A-1D
Protocol: In this study, bone marrow-derived mast cells (BMMCs) were treated with the known PDI inhibitors bacitracin and rutin, and mast cell activation was assessed. BMMCs were generated from BALB/c mice and grown in 10 ng/ml IL-3 and 10 ng/ml stem cell factor (SCF) for 4-8 weeks. One million BMMCs in triplicates were cultured with various concentrations of the PDI inhibitors Bacitracin (Bac) and Rutin (RH) for 1 day or 7 days. Some cells were activated by priming cells with DNP-IgE (Dinitrophenyl IgE) antibodies and challenging with DNP-BSA (dinitrophenyl-bovine serum albumin). Cytokine levels (IL-4, IL-13, TNF-alpha, and IL-6 in FIGS. 1A-1D, respectively) were assessed in the supernatants 24 hr later by ELISA. FIG. 1A-1D show treatment of mast cells with PDI inhibitor Bacitracin or Rutin inhibits the activation of mast cells and the production of mast cell cytokines such as TNF-a, IL-6, and IL-13. In this study, BMMCs were treated with the known PDI inhibitor PACMA-31, and mast cell activation was assessed. Bone marrow derived mast cells (BMMCs) were generated from BALB/c mice and grown in 10 ng/ml IL-3 and 10 ng/ml SCF for 4-8 weeks. 1 million BMMCs in triplicates were cultured with 30 μM PACMA-31 (Sigma-Aldrich) for 30 minutes. […] Cytokine levels (IL-13, TNF-alpha, and IL-6 in FIGS. 2A-2C) were assessed in the supernatants 6 hrs later by ELISA. […]

C[C@@H]1O[C@@H](OC[C@H]2O[C@@H](Oc3c(-c4ccc(O)c(O)c4)oc4cc(O)cc(O)c4c3=O)[C@H](O)[C@@H](O)[C@@H]2O)[C@H](O)[C@H](O)[C@H]1O [Rutin, quercetin-3-O-rutinoside]
activation of mast cells (DNP-IgE priming, DNP-BSA challenge): inhibits | production of mast cell cytokines such as TNF-a, IL-6, and IL-13 (DNP-IgE/DNP-BSA, supernatants 24 hr later by ELISA): inhibits
